The values that follow come from publication PMC7261175, “A splice site-sensing conformational switch in U2AF2 is modulated by U2AF1 and its recurrent myelodysplasia-associated mutation” (Nucleic Acids Research, 2019).

Series [1] relates to U2AF1 S34F untagged + U2AF2. The series can be described thus: fluorescence anisotropy. The note with it: Kd in figure only; Anisotropy: 150 mM NaCl, 25 mM HEPES pH 6.8, 0.5 mM TCEP, 3% glycerol, 20 uM ZnCl2, 0.2 U/ul SUPERase-In; recombinant protein; label: 5'-fluorescein.
For the next series, the system named is MBP tag. As to the kind of experiment: fluorescence anisotropy. The conditions noted are these: Anisotropy: 150 mM NaCl, 25 mM HEPES pH 6.8, 0.5 mM TCEP, 3% glycerol, 20 uM ZnCl2, 0.2 U/ul SUPERase-In; recombinant protein; label: 5'-fluorescein. (Fluorescence polarisation rises when a labelled molecule tumbles more slowly, as on binding a larger partner.)

For at least one entry, the source does not settle the construct or the ends of the probe. For some assays here: A negative result means that nothing was seen under these conditions. For some assays here: At least one verdict rests on a figure or table, not on a statement of the authors.

Consider “CUGUCCCUUUUUUUUCACAGCUCGCGGUUGAG [Fl-AdML]”, for which the binding result in series [1] was “binds”; with MBP tag, “no binding”.
